We go through one molecule from PMC5533947.

Chains of the proteins cited; added tags and fusions are not shown.
UniProt Q14643: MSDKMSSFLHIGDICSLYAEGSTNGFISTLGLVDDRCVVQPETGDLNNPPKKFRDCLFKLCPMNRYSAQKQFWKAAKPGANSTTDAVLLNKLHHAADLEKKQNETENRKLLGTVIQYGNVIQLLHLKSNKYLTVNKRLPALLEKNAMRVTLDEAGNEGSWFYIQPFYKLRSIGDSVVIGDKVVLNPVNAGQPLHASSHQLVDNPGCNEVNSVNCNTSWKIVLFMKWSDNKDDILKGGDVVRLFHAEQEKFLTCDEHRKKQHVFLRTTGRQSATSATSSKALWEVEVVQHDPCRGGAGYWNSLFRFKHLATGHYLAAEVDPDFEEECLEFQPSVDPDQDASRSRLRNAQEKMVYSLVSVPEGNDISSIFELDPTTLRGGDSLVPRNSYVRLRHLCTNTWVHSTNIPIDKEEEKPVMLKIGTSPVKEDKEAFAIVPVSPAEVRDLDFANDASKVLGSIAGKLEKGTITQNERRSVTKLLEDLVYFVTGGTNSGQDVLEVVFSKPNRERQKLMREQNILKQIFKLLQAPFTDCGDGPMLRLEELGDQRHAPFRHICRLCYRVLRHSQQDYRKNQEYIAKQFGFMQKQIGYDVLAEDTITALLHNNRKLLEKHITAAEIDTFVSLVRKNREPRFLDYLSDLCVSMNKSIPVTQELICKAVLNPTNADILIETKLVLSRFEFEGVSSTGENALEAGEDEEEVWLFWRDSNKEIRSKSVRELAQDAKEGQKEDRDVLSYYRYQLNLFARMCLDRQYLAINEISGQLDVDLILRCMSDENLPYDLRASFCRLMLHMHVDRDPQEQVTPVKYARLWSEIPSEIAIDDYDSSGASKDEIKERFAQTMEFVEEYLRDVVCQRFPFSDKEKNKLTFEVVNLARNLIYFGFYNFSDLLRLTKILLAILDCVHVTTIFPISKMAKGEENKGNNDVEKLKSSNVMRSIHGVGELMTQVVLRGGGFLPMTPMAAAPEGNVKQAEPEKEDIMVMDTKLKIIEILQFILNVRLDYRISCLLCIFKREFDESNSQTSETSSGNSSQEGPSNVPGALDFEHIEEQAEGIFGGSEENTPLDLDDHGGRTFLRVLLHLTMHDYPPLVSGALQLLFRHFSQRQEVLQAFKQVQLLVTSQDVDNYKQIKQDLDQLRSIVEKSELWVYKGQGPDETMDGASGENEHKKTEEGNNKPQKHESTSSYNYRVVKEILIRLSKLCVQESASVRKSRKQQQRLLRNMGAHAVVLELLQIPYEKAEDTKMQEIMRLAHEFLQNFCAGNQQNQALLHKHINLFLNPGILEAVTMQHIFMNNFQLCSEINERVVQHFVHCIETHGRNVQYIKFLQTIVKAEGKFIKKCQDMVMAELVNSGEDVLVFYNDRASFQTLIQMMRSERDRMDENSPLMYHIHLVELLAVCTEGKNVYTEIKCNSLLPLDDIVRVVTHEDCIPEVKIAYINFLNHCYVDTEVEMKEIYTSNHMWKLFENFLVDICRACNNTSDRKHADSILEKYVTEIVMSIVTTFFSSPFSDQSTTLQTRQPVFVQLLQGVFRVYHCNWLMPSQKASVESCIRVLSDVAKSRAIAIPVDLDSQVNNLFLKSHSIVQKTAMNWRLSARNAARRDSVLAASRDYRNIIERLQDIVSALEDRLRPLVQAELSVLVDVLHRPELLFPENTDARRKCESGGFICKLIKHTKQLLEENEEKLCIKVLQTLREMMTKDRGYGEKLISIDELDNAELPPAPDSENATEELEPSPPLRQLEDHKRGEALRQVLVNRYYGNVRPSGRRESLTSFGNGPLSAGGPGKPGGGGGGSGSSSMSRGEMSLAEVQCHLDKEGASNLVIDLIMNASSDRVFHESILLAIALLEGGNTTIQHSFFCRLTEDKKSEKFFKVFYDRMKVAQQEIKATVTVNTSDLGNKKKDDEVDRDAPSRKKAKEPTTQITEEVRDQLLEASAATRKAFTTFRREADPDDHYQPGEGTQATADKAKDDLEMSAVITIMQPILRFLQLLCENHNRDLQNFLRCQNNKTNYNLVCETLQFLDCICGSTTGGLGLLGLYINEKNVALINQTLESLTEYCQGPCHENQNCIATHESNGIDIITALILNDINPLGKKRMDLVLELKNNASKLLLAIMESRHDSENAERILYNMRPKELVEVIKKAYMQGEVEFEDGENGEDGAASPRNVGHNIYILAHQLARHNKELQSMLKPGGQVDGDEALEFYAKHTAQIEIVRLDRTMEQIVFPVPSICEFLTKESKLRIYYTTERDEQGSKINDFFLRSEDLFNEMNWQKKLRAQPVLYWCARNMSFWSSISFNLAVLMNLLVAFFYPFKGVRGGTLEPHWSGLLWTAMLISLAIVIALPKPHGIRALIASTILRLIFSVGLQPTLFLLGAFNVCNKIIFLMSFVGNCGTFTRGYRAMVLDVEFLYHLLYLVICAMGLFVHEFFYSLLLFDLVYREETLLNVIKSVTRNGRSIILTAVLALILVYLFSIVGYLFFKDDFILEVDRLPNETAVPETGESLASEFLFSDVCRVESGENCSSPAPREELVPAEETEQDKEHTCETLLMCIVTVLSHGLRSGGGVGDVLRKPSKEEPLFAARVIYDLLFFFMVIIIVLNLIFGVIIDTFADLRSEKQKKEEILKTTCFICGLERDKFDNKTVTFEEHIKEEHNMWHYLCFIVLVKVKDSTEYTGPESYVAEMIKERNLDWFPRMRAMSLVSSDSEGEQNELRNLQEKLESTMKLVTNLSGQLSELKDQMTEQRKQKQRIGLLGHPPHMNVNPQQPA

No constants are given. Whether binding was seen depends on the method and setting. In cells and extracts the contact can be indirect. Some entries that bind do so weakly or less than the wild type.

This test deals with IP3R1, endogenous in HepG2 cells (human (endogenous in HepG2)) (UniProt Q14643). In words: co-IP; endogenous proteins of HepG2 cells; IP with anti-IP3R1 antibody, blot with anti-RCN1 or anti-IP3R1.

B1: RCN1, endogenous in HepG2 cells (protein, UniProt Q15293 30-331)
chain: KPTVRKERVVRPDSELGERPPEDNQSFQYDHEAFLGKEDSKTFDQLTPDESKERLGKIVDRIDNDGDGFVTTEELKTWIKRVQKRYIFDNVAKVWKDYDRDKDDKISWEEYKQATYGYYLGNPAEFHDSSDHHTFKKMLPRDERRFKAADLNGDLTATREEFTAFLHPEEFEHMKEIVVLETLEDIDKNGDGFVDQDEYIADMFSHEENGPEPDWVLSEREQFNEFRDLNKDGKLDKDEIRHWILPQDYDHAQAEARHLVYESDKNKDEKLTKEEILENWNMFVGSQATNYGEDLTKNHDEL
As to B1, the binding result is “binds”.
